Measured values from article PMC7326958.
No constants are given. Whether binding was seen depends on the method and setting. Binding seen in cells or lysates may run through a third protein. Here binding means that the protein was enriched with, or labelled near, the bait; the list need not be complete.

Protein sequences, listed by entry. Tags and fused reporters are not part of them.
UniProt Q96DH6: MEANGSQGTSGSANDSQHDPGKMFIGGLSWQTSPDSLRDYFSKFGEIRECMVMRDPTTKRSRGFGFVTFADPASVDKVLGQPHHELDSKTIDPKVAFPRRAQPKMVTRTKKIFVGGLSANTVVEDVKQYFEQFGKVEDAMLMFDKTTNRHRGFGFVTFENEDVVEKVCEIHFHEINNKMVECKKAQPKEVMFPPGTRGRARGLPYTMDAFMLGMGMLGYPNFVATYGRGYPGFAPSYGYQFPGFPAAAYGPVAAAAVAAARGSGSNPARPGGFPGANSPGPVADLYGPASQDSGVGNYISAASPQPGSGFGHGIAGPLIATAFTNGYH
UniProt Q03135: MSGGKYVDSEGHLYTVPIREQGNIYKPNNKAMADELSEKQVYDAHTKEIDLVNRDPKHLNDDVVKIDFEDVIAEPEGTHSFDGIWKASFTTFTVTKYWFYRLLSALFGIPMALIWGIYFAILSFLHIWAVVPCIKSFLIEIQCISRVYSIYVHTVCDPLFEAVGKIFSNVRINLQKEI

Target: Musashi-2 (MSI2), endogenous (human (endogenous in ST8814)) (UniProt Q96DH6)
Assay: affinity purification with mass spectrometry; immunoprecipitation of MSI2, 10% SDS-PAGE, Coomassie staining, gel cut into four segments, shotgun proteomics (Orbitrap Q Exactive HF-X), search against Homo sapiens UniProt; cells not given

binding: binds
Substance: Caveolin-1 (CAV1), endogenous (from UniProt Q03135 1-178)
